Laboratory results reported in patent US10799456B2, “Multiple drug lipid nanoparticle composition and related methods for extended drug levels in blood and lymph tissue” (priority 2015, dated 2020).
Some results were stated once for a whole list of compounds, not compound by compound.

Assay: Intracellular drug concentration in inguinal lymph node mononuclear cells (LNMCs)
Settings: 24 h; listed as tenofovir
Experimental: Four macaques were divided into two treatment groups (two animals per group). […] Data were normalized to the anti-HIV LNP dose for comparative analysis.
Plasma was removed, PBMCs were isolated by the density gradient method, and cells were aliquoted into pellets of approximately 2 million PBMCs each. An inguinal lymph node was surgically excised 24 h after drug administration (n=2 per treatment), LNMCs were isolated by passage through a 100-lm nylon cell strainer (Corning, Tewksbury, Mass.), and cells were aliquoted into pellets of approximately 1-2 million LNMCs each. All samples were stored at −80° C. prior to drug analysis.
Plasma concentrations of all three drugs were analyzed simultaneously by liquid chromatography-tandem mass spectrometry using a recently published method. […] Antimicrob Agents Chemother 2014; 58(5):2675-2680, incorporated herein by reference in its entirety. PBMC and LNMC pellets were lysed using 200 μl water/methanol (1:1 v/v), sonicated for 10 min, and then extracted and analyzed using the same method as cited above. Intracellular concentrations were converted to ng/ml with the assumption that each cell has a volume of 4×10^−9 ml. Alberts B, Johnson A, Lewis J, et al. Molecular Biology of the Cell, 4 ed. Garland Science, New York, 2002, incorporated herein by reference in its entirety.

Compound: C[C@H](Cn1cnc2c(N)ncnc21)OCP(=O)(O)O [Tenofovir (TFV), [(2R)-1-(6-aminopurin-9-yl)propan-2-yl]oxymethylphosphonic acid]
- LNP/free ratio, mononuclear cells of inguinal nodes: over 50
